Here are results for two sequences from publication PMC10516654, “Structural and functional characterization of MrpR, the master repressor of the Bacillus subtilis prophage SPβ”.

For the data set, the target named is T1, MrpR (Bacillus subtilis prophage SPβ) (UniProt O34558).
T1 sequence (looked up, limits assumed): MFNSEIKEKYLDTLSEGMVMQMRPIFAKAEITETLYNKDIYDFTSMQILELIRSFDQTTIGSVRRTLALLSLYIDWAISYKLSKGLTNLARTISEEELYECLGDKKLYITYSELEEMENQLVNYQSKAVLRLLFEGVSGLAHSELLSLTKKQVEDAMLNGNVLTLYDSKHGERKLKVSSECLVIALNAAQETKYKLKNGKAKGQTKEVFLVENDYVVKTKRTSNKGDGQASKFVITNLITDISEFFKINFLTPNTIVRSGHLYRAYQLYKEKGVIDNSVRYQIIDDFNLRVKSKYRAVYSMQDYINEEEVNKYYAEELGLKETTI
The experiment in a line: EMSA. As to conditions: herring sperm DNA, EMSA: same buffer plus 50 ug/ml herring sperm DNA, RT 15 min, 6% native PAGE 0.5x TBE, recombinant protein, probe letters rebuilt from the primers and the genome.

The exact form of at least one protein or probe is not confirmed. Weaker means in comparison with the reference protein, sequence or condition of that experiment. Where a protein sequence is shown, tags need not be part of it.

In the case of “CAGCATACTCCAATGCACTTCTTGCTGCCTTTGTCTTAACATCTAGGTTTAAACAGTAATCTTTCATTAATTCATATTCACGGTCTGGATACTGACTCTTAACAATGTTGACTATTGAAGAAAATTCATTAAATGTTTTCCCATCATGGTTTAAGAAGTCATAAAGAGGATTGGGGTTTTTAAGGCCAGCTACTGTTGCCCATTTATTCATTAAAGAGTTGTCATTTTCCAAGTCTTTCTTCATAGCTATCCTTATTAACTCCATTATTTCCCCTCATTTCTTTTTGTTGTCTTTATTGGTTAACTTAATAATACTATAGATCACATTACGAGTCAATTATTTTATACATATTTTTTGTATTTGTAATCTCTTTAAAATTCCAATTTTAACTAGACACAATGAGGACTAAACCTCATTGTGTTCTTCTAAAGCAAAAGGTCCTACTTAAGGCTATAATACACCTCTTCCGCAATATCCTTTGCAAACCTAGCGAAAATTTCTCTATCAAAACTTCTTAAGCATTTAGCTAAGGACAGGATATTCTGCACATGGTCAAGTGTATTAGTCAAATCTAATGCCGTTACCAAAGAAAGCAACATGTCTTTGTAGTTCATATCTCCGGC (double strand) [PaimR EMSA fragment with SPBRE]”, the binding result (shift at 5-fold protein excess over 50 nM DNA, protein details: C-terminal His6, label: Dyomics 781 at 5' end of reverse primer) is “binds”.

In the case of “CTTTTGTAATAGCAGCCGATTGTAATGTCAATGTAGCTGCATCGTCTATTGACATGAAAAATCTGGTCATGTTTTTGTCTGTGATGGTCAGAGGTTCACCCTCCATCATCTGTTCAAATAATATGGGGATGACCGAACCTCTGGAACCGAGAACATTTCCAAAGCGGACCGAACAAAACAAGGTTCCTTTGTTTTGGACGTGGCGGTTTGCTTGATGAAACAGCTTTTCAGATAACAGCTTGGTGGCACCCATTGTGTTCACAGGAGATACAGCTTTATCTGTTTTTTAAGATACTTACTACTTTTCTTAGTGGAAACTATTAGTGGCTGTGAGGTCAAAAATGAAATTAAACCTTAGGATAGGGGTTATTTCAAATTGAGCTGGTATAGGCCCTTTTCTTTTTTGTGTCATGTTAACAATAACATCTTTTAAGACCATCCTTAATAGCTCGTTCTTTTTCTCTGAGCTTGATTCAATGTGATACTGGTCAATTATTTTATTTATGTTGTTTCTCACTGTATTACTGTCTATTTCTGATTGTGTATCTTGTAATCCATTGAGCTCATTCTTTGCATTCTGGAGCTCTTTAAATTCTTCATCTAATGCAGC (double strand) [attR EMSA fragment (no SPBRE)]”, the binding result (shift at approx. 10- to 20-fold excess over 50 nM DNA, protein details: C-terminal His6, label: Cy3 at 5' end of forward primer) is “binds more weakly”.
